Read-outs that look alike come from different tables or passages of the source. Results are given in words; binding and its absence hold for the method and conditions named. In cells and extracts the contact can be indirect. Here binding means that the protein was enriched with, or labelled near, the bait; the list need not be complete.
B1: PPE31 (M. marinum, MMAR_2683) (protein, UniProt B2HSV2 1-386)
chain: MTASLDFATLPPEINSARMYSGPGSAPMLAAASAWKGLAAELRVTVLSYDSVLRALTGEEWYGPASASMAAAAAPYVAWMSTTAAQAEESAVQAAAAAAAYEAAFSATVAPTVITANRAQLMVLVATNVLGQNTPAIAAVEAQYCEMWAQDAMAMYGYAGSSAAATRLSEFLEPQHNTNPAGLLAQQSTLAQLMSAVPNVLQGLASSNTSASAPSGLLSTLLSGNGQSWLATLWSEFGPNANIWNTIASTGFLLPSNMVTPFLGMLGTAAVADAAEDALGTTGSGALGGALSAPLGSVGGQAGLAAAGNAAIVGKLSVPPSWTGAAPLASPLGSALGGTPMVAPPPTAAAGMPGVPFGNMAGQPFGRALPQYGFRPTFVARPPAAG

Chains of the proteins cited; added tags and fusions are not shown. Lines headed by an entry give the natural chain unless they say otherwise; changes in a name come on top.
UniProt O53943: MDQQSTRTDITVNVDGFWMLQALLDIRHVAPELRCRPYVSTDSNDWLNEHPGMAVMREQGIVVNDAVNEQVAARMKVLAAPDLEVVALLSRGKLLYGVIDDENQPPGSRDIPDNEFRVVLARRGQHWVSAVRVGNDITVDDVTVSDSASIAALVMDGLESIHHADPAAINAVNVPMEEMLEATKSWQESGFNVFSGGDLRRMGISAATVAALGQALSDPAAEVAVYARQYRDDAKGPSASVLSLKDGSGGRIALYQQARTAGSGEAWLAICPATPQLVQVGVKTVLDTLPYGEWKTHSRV
UniProt B2HPW7: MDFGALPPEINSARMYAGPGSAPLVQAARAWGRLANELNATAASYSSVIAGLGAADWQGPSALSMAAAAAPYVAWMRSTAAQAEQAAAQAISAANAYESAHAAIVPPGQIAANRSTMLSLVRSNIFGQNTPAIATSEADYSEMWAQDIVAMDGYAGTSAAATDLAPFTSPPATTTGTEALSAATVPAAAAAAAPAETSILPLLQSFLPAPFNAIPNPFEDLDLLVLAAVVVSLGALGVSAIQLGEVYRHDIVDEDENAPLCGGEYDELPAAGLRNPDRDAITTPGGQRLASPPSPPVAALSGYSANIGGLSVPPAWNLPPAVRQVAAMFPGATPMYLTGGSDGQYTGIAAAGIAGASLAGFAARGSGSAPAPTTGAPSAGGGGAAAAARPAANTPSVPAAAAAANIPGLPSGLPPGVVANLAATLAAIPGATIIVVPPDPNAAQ
UniProt B2HKX8: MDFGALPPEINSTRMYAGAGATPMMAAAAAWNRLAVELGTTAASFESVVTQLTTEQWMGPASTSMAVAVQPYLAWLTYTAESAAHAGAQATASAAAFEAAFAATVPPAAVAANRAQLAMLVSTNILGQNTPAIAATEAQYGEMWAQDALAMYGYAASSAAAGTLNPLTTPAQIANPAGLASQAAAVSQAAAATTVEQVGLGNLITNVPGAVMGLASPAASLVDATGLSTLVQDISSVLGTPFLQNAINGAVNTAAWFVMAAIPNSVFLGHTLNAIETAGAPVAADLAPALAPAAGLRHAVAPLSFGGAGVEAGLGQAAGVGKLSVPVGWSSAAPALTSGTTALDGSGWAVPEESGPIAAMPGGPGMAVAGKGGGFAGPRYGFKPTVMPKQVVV
UniProt B2HK52: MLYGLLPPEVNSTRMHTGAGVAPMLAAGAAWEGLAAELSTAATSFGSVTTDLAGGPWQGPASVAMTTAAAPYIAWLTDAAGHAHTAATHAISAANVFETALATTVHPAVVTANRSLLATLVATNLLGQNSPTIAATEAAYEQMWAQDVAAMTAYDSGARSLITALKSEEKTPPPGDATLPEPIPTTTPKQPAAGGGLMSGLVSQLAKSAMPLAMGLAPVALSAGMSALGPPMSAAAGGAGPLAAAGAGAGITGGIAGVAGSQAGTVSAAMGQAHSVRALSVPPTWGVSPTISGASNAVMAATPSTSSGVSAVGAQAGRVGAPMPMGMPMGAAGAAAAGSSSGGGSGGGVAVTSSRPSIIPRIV
UniProt B2HSV3: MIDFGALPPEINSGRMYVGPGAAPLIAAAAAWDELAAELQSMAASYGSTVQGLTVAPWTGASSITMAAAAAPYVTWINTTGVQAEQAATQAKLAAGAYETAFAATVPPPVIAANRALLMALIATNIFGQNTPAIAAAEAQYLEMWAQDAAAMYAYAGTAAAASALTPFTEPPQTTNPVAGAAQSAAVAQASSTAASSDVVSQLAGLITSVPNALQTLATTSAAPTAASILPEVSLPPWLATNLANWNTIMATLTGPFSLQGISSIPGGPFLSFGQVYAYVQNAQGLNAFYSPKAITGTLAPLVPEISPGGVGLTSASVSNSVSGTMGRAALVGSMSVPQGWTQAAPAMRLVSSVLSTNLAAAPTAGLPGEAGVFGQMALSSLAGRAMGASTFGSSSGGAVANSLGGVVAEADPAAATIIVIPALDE

Columns and labels:
GST-EspG5 [1] = target: GST-EspG5 (UniProt O53943); assay: affinity purification with mass spectrometry; […] (250 mM NaCl, 20 mM HEPES, 2 mM DTT); […]; only the target purified
GST-EspG5 [2] = target: GST-EspG5 (UniProt O53943); assay: as above; remark: listed apart in the source

| Molecule | binding (GST-EspG5 [1]) | binding (GST-EspG5 [2]) |
| --- | --- | --- |
| MMAR_0685 (PPE) (from UniProt B2HPW7) | binds |  |
| MMAR_1950 (PPE15_1) (from UniProt B2HKX8) | binds |  |
| MMAR_3578 (PPE) (from UniProt B2HK52) | binds |  |
| PPE32 (M. marinum, MMAR_2684) (from UniProt B2HSV3) | binds |  |
| B1 |  | binds |
